Some entries share one result that the patent states for a list of compounds.
Target: T1, catalytic domain of MMP-13 enzyme (Homo sapiens, UniProt P45452)
T1 construct: catalytic domain of MMP-13 enzyme (produced by Alantos or commercially available from Invitek (Berlin), Cat. # 30100812); purchased Invitek (Berlin) 30100812
Experiment: Assay for determining MMP-13 inhibition (fluorescent substrate)
Format: biochemical
Conditions: read-out: MMP-13 Activity (IC50 MMP-13), Group
Protocol: The typical assay for MMP-13 activity is carried out in assay buffer comprised of 50 mM Tris, pH 7.5, 150 mM NaCl, 5 mM CaCl2 and 0.05% Brij-35. Different concentrations of tested compounds are prepared in assay buffer in 50 μL aliquots. 10 μL of a 50 nM stock solution of catalytic domain of MMP-13 enzyme (produced by Alantos or commercially available from Invitek (Berlin), Cat. # 30100812) is added to the compound solution. The mixture of enzyme and compound in assay buffer is thoroughly mixed and incubated for 10 min at room temperature. Upon the completion of incubation, the assay is started by addition of 40 μl of a 12.5 μM stock solution of MMP-13 fluorescent substrate (Calbiochem, Cat. No. 444235). The time-dependent increase in fluorescence is measured at the 320 nm excitation and 390 nm emission by automatic plate multireader. The IC50 values are calculated from the initial reaction rates.

For `N#Cc1cc2c(=O)[nH]c(C(=O)NCc3ccc4c(c3)NC(=O)CO4)nc2s1` [Example 23b], the IC50 was < 100 nM.

— US7713966B2, “Heterobicyclic metalloprotease inhibitors” (Alantos Pharmaceuticals Holding, Inc., priority 2006, dated 2010)
